Here are results for 1 substance from publication PMC7393493.

Protein sequences, listed by entry. Tags and fused reporters are not part of them. Lines headed by an entry give the natural chain unless they say otherwise; changes in a name come on top.
UniProt Q8IZW8: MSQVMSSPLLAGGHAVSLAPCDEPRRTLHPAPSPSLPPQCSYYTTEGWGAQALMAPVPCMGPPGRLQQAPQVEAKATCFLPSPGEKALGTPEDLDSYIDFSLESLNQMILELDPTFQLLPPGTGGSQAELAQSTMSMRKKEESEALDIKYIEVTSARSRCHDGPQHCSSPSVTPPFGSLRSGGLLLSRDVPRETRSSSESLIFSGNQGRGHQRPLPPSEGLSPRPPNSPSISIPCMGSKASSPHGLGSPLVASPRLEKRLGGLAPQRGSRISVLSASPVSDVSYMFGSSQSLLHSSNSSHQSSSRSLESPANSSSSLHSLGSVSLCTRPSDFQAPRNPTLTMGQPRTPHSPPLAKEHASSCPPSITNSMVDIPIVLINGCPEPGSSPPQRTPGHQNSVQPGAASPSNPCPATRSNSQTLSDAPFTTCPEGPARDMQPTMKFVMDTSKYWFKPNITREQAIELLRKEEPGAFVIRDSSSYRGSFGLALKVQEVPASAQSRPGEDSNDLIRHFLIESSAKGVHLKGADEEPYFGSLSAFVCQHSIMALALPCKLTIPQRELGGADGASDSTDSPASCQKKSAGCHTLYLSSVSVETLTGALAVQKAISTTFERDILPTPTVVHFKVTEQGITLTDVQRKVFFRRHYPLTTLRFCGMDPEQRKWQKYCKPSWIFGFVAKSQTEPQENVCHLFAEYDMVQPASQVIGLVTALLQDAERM

No constants are given. Whether binding was seen depends on the method and setting. Binding seen in cells or lysates may run through a third protein. Binding can be weak; no strength is given.

The assay addresses EGFR (human (endogenous in KYSE150 and KYSE510)) (UniProt P00533). Kind of assay: co-IP; KYSE150 and KYSE510 cell lysates, precleared with protein G-agarose (4 h, 4 °C); anti-EGFR antibody (Abcam, ab52894) overnight at 4 °C, protein G-agarose overnight at 4 °C; western blotting of the immunoprecipitates.

As for TNS4 (from UniProt Q8IZW8), the binding result is on record as “binds”.
